{
  "source": "patent US8633246B2",
  "about": "“Omega-3 fatty acids for osteoarthritis” (Hill's Pet Nutrition, Inc., priority 2003, dated 2014)",
  "key": {"[1]": {"tested_on": "canine chondrocyte membranes", "assay": "Incorporation of n-3 fatty acids into chondrocyte membranes, monolayer cultures", "format": "cell-based, dog"}, "[2]": {"tested_on": "canine articular cartilage explants", "assay": "Media lactate concentration of cartilage explant cultures", "format": "cell-based", "conditions": "Dog 4; 300 μg/ml pre-treatment; control, RA- and OSM-treated cultures"}},
  "data": [
    {"compound": "CC/C=C\\C/C=C\\C/C=C\\CCCCCCCC(=O)O", "note": "[ALA, alpha-linolenic acid]", "values": [
      {"measurement": "incorporation of 18:3 n-3 into chondrocyte membranes", "setting": "[1]; 24 or 48 hours, two dogs", "value": "no incorporation"},
      {"measurement": "incorporation into chondrocyte membranes", "setting": "[1]; 48 hours, one dog, 300 μg/ml for each fatty acid", "value": "but not the 18:3 n-3 fatty acid ALA"},
      {"measurement": "% 18:3 n-3 in chondrocytes (range)", "setting": "[1]; after 24 or 48 hours with 100 or 300 μg/ml ALA", "value": "0.3-2.5%"}
    ]},
    {"compound": "oncostatin M [OSM]", "values": [
      {"measurement": "change in media lactate concentration", "setting": "[2]", "value": "significant decrease"}
    ]}
  ]
}
